Literature values, collected in patent US10786467B1, “Shelf stable dosage of dessicated sugar matrix infused with gingerol and shogaol” (Enteral Health and Nutrition LLC, priority 2011, dated 2020).

Details: pungency

In the case of `CCCCC/C=C/C(=O)CCc1ccc(O)c(OC)c1` [shogaol], the “Scoville Heat Units” value is listed as 160,000 SHU.

In the case of `CCCCC[C@H](O)CC(=O)CCc1ccc(O)c(OC)c1` [gingerol], the “Scoville Heat Units” value is given as 60,000 SHU.
